Results on 37 targets are retold here after the supplement of paper PMC10849652.

Protein sequences, listed by entry. Tags and fused reporters are not part of them. Lines headed by an entry give the natural chain unless they say otherwise; changes in a name come on top.
UniProt P61163, whole entry, looked up: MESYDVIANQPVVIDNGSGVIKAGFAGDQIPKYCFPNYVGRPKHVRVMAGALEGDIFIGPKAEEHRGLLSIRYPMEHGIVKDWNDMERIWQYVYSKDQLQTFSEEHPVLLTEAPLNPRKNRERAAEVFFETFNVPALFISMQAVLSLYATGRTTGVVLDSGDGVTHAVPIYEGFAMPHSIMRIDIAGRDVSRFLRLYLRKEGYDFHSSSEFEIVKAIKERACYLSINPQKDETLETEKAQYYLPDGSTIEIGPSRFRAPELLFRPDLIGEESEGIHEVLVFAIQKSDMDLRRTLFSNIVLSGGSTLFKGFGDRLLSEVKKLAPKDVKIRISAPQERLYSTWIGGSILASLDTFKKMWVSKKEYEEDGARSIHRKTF
UniProt O00154: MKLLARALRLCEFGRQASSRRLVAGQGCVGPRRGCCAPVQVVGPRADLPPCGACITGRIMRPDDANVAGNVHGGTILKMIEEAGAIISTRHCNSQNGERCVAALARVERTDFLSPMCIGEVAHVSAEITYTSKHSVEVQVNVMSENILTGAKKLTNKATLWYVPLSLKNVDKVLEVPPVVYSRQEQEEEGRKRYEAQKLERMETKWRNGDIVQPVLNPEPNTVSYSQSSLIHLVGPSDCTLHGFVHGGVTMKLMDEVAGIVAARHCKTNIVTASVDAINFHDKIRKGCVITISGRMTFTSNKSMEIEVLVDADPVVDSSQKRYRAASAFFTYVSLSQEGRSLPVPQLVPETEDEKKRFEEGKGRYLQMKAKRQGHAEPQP
UniProt Q5VST6: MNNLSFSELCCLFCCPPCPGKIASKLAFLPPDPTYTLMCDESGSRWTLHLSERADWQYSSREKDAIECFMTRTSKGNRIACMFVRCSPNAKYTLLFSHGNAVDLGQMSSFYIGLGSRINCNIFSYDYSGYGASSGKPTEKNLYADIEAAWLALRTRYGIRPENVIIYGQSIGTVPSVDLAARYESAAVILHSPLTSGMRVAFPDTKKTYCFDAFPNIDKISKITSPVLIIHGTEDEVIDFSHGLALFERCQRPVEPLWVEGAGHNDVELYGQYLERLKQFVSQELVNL
UniProt Q9H568: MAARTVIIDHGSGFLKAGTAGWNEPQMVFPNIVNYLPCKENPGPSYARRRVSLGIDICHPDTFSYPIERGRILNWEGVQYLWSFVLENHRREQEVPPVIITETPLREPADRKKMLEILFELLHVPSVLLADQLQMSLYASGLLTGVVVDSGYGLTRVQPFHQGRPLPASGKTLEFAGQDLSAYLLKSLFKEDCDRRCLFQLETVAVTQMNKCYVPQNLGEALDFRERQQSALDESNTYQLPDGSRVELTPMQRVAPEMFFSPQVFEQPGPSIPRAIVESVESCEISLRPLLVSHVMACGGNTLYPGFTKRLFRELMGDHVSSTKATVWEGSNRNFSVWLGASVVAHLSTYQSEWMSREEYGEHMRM
UniProt Q9NPJ3: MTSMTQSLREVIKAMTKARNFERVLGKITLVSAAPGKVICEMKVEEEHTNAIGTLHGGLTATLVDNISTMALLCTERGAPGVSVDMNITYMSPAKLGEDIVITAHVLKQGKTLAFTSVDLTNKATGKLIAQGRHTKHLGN
UniProt P16219: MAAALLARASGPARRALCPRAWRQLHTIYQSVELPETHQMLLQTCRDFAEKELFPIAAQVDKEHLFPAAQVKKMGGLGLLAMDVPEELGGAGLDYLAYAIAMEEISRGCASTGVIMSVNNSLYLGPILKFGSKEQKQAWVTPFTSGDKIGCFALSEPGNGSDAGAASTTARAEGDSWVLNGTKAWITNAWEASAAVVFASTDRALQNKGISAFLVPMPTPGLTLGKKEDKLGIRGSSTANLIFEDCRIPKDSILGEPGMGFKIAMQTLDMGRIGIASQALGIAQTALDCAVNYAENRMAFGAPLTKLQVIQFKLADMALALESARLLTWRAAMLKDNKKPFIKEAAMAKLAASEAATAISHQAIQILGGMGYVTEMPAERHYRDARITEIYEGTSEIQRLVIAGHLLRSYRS
UniProt O96019, whole entry, looked up: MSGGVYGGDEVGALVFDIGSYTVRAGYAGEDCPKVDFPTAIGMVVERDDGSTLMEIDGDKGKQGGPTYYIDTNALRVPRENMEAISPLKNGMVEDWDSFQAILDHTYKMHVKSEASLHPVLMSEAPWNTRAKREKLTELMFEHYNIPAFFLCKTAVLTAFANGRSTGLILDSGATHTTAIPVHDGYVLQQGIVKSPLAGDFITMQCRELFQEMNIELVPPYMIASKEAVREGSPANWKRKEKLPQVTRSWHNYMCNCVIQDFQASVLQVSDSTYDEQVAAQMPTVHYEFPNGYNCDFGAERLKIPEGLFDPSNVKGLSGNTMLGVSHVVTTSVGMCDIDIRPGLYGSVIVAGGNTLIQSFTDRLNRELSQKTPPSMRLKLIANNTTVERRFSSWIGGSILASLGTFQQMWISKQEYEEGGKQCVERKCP
UniProt O75027: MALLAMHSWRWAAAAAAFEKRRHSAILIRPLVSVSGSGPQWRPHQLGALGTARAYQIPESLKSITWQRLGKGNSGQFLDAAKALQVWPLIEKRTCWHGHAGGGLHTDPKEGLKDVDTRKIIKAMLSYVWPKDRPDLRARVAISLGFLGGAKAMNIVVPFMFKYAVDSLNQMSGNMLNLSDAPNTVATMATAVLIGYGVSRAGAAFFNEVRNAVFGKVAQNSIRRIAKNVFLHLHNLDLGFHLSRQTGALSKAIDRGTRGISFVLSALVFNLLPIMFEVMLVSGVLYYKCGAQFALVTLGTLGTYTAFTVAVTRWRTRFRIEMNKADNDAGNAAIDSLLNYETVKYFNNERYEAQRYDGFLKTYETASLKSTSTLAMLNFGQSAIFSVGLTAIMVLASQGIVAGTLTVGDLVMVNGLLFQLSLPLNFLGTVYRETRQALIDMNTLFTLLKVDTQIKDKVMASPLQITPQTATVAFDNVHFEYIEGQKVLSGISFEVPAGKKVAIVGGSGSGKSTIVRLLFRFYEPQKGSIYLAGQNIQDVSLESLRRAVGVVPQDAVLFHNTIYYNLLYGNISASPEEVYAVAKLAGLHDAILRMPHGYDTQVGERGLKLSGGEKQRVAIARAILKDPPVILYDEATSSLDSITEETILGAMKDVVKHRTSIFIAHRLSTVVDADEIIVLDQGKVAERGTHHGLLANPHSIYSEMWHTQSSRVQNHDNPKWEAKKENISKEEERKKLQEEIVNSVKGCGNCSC
UniProt O14639: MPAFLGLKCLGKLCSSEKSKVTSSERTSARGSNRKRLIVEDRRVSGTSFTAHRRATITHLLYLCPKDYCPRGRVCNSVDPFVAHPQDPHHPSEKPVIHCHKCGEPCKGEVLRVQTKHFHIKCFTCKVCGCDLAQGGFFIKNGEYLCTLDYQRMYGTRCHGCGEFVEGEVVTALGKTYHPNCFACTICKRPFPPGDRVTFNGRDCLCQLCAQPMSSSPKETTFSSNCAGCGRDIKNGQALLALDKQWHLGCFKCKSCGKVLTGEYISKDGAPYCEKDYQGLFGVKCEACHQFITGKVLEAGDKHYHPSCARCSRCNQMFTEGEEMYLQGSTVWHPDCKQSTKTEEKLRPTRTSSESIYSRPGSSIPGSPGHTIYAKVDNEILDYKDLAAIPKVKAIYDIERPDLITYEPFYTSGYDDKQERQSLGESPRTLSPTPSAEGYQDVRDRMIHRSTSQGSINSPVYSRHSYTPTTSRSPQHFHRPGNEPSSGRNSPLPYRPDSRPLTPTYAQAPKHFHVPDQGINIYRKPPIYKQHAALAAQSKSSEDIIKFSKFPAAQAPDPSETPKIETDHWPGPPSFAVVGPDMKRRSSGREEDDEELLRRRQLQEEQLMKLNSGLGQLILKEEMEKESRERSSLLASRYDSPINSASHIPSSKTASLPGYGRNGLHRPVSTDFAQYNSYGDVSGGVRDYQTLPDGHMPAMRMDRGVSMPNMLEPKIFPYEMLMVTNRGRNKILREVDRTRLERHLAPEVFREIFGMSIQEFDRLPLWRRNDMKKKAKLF
UniProt Q15067: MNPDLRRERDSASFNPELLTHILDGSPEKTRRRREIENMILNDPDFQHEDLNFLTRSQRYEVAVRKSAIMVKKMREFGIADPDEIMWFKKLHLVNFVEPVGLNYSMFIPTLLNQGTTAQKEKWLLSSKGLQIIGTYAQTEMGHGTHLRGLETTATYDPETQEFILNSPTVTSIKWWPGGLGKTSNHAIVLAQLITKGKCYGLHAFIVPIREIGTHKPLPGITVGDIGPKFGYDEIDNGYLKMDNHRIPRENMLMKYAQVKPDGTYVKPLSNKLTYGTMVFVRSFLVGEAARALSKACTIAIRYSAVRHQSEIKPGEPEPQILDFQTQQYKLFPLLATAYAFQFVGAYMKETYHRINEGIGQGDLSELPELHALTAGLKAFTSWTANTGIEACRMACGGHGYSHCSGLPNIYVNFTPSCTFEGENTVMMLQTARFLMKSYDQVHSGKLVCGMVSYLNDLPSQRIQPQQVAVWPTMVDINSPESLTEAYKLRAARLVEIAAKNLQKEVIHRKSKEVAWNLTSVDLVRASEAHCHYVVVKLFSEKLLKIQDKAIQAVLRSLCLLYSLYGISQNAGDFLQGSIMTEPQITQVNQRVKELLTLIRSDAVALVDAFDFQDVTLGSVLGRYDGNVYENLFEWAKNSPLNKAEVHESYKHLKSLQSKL
UniProt P24752: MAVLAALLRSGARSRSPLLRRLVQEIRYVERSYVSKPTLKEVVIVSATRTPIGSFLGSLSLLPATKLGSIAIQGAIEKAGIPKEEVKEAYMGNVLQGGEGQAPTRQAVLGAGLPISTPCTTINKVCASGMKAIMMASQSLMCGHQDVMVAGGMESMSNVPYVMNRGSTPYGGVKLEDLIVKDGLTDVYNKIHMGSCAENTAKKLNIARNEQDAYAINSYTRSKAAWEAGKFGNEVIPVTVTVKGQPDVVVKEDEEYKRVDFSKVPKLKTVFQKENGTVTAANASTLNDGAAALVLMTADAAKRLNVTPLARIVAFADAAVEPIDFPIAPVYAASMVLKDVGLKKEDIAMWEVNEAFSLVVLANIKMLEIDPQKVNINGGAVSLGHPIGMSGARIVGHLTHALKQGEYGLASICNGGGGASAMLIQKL
UniProt P07311: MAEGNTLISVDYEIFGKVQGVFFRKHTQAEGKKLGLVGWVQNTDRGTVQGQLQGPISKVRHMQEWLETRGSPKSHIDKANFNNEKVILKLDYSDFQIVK
UniProt Q9NR19, whole entry, looked up: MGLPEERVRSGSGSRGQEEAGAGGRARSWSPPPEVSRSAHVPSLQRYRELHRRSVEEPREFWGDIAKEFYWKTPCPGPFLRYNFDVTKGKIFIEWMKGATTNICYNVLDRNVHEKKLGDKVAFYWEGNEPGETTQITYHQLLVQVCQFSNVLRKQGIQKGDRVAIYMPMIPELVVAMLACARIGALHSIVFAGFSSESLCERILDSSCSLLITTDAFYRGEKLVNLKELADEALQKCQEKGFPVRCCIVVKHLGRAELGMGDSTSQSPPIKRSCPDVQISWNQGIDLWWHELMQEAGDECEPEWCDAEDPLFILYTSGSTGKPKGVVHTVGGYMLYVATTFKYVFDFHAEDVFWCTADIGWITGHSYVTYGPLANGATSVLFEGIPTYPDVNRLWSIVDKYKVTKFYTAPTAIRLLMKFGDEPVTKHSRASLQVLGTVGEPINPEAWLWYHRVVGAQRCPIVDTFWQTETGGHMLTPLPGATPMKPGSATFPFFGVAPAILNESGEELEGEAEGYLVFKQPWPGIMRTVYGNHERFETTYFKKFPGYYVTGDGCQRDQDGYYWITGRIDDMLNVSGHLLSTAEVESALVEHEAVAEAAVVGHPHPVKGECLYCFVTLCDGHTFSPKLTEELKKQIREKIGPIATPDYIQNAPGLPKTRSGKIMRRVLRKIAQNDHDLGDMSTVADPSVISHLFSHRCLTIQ
UniProt Q9NUJ1: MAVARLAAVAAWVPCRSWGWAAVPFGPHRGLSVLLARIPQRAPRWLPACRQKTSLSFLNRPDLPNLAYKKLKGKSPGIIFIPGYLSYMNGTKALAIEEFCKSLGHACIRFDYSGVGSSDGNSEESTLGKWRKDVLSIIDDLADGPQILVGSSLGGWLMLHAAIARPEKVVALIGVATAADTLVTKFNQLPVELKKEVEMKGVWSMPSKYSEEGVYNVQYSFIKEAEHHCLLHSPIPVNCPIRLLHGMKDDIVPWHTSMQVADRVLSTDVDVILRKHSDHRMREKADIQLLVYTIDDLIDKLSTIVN
UniProt Q9Y305: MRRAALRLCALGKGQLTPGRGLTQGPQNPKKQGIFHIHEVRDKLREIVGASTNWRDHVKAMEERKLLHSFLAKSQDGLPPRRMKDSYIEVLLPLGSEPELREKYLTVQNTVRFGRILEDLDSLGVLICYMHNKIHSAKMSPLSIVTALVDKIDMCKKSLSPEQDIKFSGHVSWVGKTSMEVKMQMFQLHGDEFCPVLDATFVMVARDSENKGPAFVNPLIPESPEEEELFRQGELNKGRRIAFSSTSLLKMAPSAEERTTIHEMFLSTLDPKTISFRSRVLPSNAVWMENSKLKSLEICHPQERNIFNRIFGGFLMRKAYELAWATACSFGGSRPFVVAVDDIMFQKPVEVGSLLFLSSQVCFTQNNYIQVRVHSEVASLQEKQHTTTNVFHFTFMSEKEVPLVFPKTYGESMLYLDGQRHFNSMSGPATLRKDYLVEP

The list shows a part of the results.

Compound in the experiment: CN(C)CC(=O)Nc1ccc2[nH]c(=O)c3ccccc3c2c1
Nature of the experiment: log2 fold change, soluble protein after heating vs DMSO (PISA); higher = thermal stabilisation; K562 cells, 10 uM, 30 min; active = over 0.2 and 3.5 SD of the protein, either way, in both replicates (recomputed). A digest of the protocol: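 K562 cells at 2×10^6 cells/mL were treated for 30 min with 10 μM compound, and aliquots were heated for 3 min over 48°C-58°C before pooling. Extraction used PBS with 0.5% NP-40 at 4°C, and soluble protein was the supernatant after 21,000xg for 90 min, measured by TMTpro 16plex LC-MS/MS with channel sums equalised. Thermal stability values, relative to control samples and from duplicates, are log2 fold changes.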
For the target AAAS (UniProt Q9NRG9), the log2 fold change was inactive: 0.032.
The result for ACAD8 (UniProt Q9UKU7) reads inactive: -0.029; that for ACTA1 (UniProt P68133), inactive: -0.014.
With AASDHPPT (UniProt Q9NRN7), the log2 fold change was inactive: 0.012.
With ABHD13 (UniProt Q7L211) the figure was inactive: 0.066; with ABCF1 (UniProt Q8NE71), inactive: -0.04.
Consider ACTR1A (UniProt P61163), for which the log2 fold change is inactive: -0.023.
The result for ACOT7 isoform 7 (UniProt O00154) reads inactive: 0.013.
With ADA (UniProt P00813) the figure was inactive: -0.023; with ABHD17B (UniProt Q5VST6), inactive: 0.01.
The result for ADAT3 (UniProt Q96EY9) reads inactive: -0.059.
Consider ACTL8 (UniProt Q9H568), for which the log2 fold change was inactive: 0.05.
ACTB, A0A2R8Y793: the log2 fold change was inactive: -0.006.
With ACTR6 (UniProt Q9GZN1) the figure was inactive: 0.021; with ACOT13 (UniProt Q9NPJ3), inactive: -0.015; with ACADS (UniProt P16219), inactive: 0.431.
The result for ACTL6A (UniProt O96019) reads inactive: -0.017; that for ABCB7 isoform 2 (UniProt O75027), inactive: 0.01.
With ABCE1 (UniProt P61221) the figure was inactive: -0.025; with ACLY (UniProt P53396), inactive: -0.003; with ABLIM1 (UniProt O14639), inactive: 0.144.
For the target ACOX1 isoform 2 (UniProt Q15067), the log2 fold change is inactive: -0.002.
The result for ACAT1 (UniProt P24752) reads inactive: -0.044.
With ABCE1 (UniProt H0Y990) the figure was inactive: 0.083.
As for ACBD3 (UniProt Q9H3P7), the log2 fold change is inactive: 0.034.
With ACTR3 (UniProt P61158) the figure was inactive: -0.02.
The result for A2M (UniProt P01023) reads inactive: -0.031; that for ACTR10 (UniProt Q9NZ32), inactive: -0.055; that for ADAR isoform 4 (UniProt P55265), inactive: -0.072.
The result for ACAA1 (UniProt P09110) reads inactive: -0.007.
Turning to ACYP1 (UniProt P07311), the log2 fold change was inactive: 0.035.
The result for ABCC4 (UniProt O15439) reads inactive: -0.01.
The result for ACSS2 isoform 2 (UniProt Q9NR19) reads inactive: 0.016; that for ACAT2 (UniProt Q9BWD1), inactive: -0.032.
The result for ABHD10 (UniProt Q9NUJ1) reads inactive: -0.012.
With ABI1 (UniProt Q8IZP0), the log2 fold change was inactive: 0.045.
With ACOT9 isoform 4 (UniProt Q9Y305) the figure was inactive: -0.042.
